Data taken from the supplement of paper PMC4862054.
Small differences around the control level are noise.

Legend:
Experiment in all cases: normalised response (% of control), CellTox Green; higher = less cell death (100 = DMSO, 0 = benzethonium chloride kill control)
Conditions in all cases: incubation time: 72 h
[1] = tested on: MDA-MB-468
Method: (§1)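 DSRT, 72 h incubation, CellTox Green / CellTiter-Glo readout. Signal is normalised to DMSO and benzethonium chloride controls. Value is the normalised response at the lowest tested concentration.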

[2] = tested on: MDA-MB-231
Method: as §1

[3] = tested on: Hs578T
Method: as §1

[4] = tested on: CAL-51
Method: as §1

[5] = tested on: MDA-MB-436
Method: as §1

[6] = tested on: HCC1599
Method: as §1

[7] = tested on: CAL-120
Method: as §1

[8] = tested on: HDQ-P1
Method: as §1

[9] = tested on: MFM-223
Method: as §1

[10] = tested on: BT-549
Method: as §1

[11] = tested on: DU-4475
Method: as §1

[12] = tested on: MCF-10A
Method: as §1

[13] = tested on: HCC1937
Method: as §1

[14] = tested on: CAL-85-1
Method: as §1

[15] = tested on: HCC1143
Method: as §1

[16] = tested on: BT-474
Method: as §1

[17] = tested on: CAL-148
Method: as §1

[18] = tested on: MDA-MB-453
Method: as §1

Row | Compound | normalised response [1] [%] | normalised response [2] [%] | normalised response [3] [%] | normalised response [4] [%] | normalised response [5] [%] | normalised response [6] [%] | normalised response [7] [%] | normalised response [8] [%] | normalised response [9] [%] | normalised response [10] [%] | normalised response [11] [%] | normalised response [12] [%] | normalised response [13] [%] | normalised response [14] [%] | normalised response [15] [%] | normalised response [16] [%] | normalised response [17] [%] | normalised response [18] [%]
1 | COc1ncc(-c2ccc3nccc(-c4ccnnc4)c3c2)cc1NS(=O)(=O)c1ccc(F)cc1F (0.1 nM) | 62.6 | 114 | 109 | 127 | 91.1 | 113 | 99.7 | 105 | 80.8 | 95.2 | 106 | 107 | 113 | 101 | 105 | 102 | 104 | –
2 | CCN(CC)CCCC(C)Nc1ccnc2cc(Cl)ccc12 (stereo not drawn) [Chloroquine] (10 nM) | 54.6 | 118 | – | 114 | 94.6 | 118 | 102 | 98.1 | 104 | 91.6 | 113 | 109 | 119 | 105 | 84.7 | 96.3 | 104 | 106
3 | N.N.[Cl][Pt][Cl] [Cisplatin] (0.1 nM) | 99.8 | 131 | 91.5 | 117 | 86 | 114 | 102 | 105 | 104 | 105 | 114 | 110 | 116 | 95.3 | 83.4 | 98.2 | 98.9 | 104
4 | Nc1nc(Cl)nc2c1ncn2[C@@H]1O[C@H](CO)[C@@H](O)[C@@H]1F [Clofarabine] (1 nM) | 102 | 117 | 88 | 96.2 | 70.8 | 121 | 109 | 97.5 | 95.5 | 80.9 | 114 | 112 | 94.4 | 101 | 132 | 100 | 102 | 81.3
5 | C#Cc1cccc(Nc2ncnc3cc(OCCOC)c(OCCOC)cc23)c1 [Erlotinib] (1 nM) | 84.2 | 107 | 80.3 | 112 | 88.5 | 110 | 102 | 99.4 | 102 | 61.5 | 107 | 103 | 115 | 103 | 116 | 100 | 82.9 | 107
6 | O=S(=O)(c1cccc2cnccc12)N1CCCNCC1 [Fasudil] (5 nM) | 90.4 | 102 | – | 86.5 | 91.5 | 90.4 | 103 | 93.7 | 101 | 97.2 | 99.9 | 97.6 | 104 | 102 | 81.9 | 99.6 | 92.7 | 107
7 | NC1(c2ccc(-c3nc4ccn5c(=O)[nH]nc5c4cc3-c3ccccc3)cc2)CCC1 [MK-2206] (0.1 nM) | 93.9 | 101 | 117 | 112 | 93.1 | 106 | 103 | 102 | 105 | 88.1 | 103 | 105 | 115 | 104 | 135 | 102 | 96 | 110
8 | CC[C@@H]1C(=O)OC[C@@H]1Cc1cncn1C [Pilocarpine] (4 nM) | 110 | 110 | 113 | 118 | 105 | 106 | 94.4 | 87.2 | 98.4 | 94.7 | 95.4 | 81.8 | 103 | 100 | 111 | 97.5 | 93.2 | 98.2
9 | CC[C@]1(O)C[C@H]2CN(CCc3c([nH]c4ccccc34)[C@@](C(=O)OC)(c3cc4c(cc3OC)N(C=O)[C@H]3[C@@](O)(C(=O)OC)[C@H](OC(C)=O)[C@]5(CC)C=CCN6CC[C@]43[C@@H]65)C2)C1 [Vincristine] (0.1 nM) | 103 | 103 | 110 | 75.2 | 74.1 | 101 | 99.9 | 90.9 | 103 | 99.2 | 103 | – | 76 | 108 | 109 | 99.7 | 100 | 105

Part of the list above, showing only normalised response [7] [%]:
Row | Compound | normalised response [7] [%]
1 | COc1ncc(-c2ccc3nccc(-c4ccnnc4)c3c2)cc1NS(=O)(=O)c1ccc(F)cc1F (0.1 nM) | 99.7
7 | NC1(c2ccc(-c3nc4ccn5c(=O)[nH]nc5c4cc3-c3ccccc3)cc2)CCC1 [MK-2206] (0.1 nM) | 103
